Among the data in paper PMC8959458 are binding values, retold here.

Results are given in words; binding and its absence hold for the method and conditions named. Binding seen in cells or lysates may run through a third protein. Some entries that bind do so weakly or less than the wild type.

The target of the assay is PKCα (mouse (endogenous in skeletal muscle)) (UniProt P20444). Nature of the assay: co-IP; PKC antibody (10 μg) immobilised on resin, 1 mg skeletal muscle lysate; Nox2/Nox4 detected in the precipitate by western blot; mice inactive, exercised at 25°C or -5°C for 6 weeks, with or without VC or LCBP. In general terms: In western blotting, separated proteins are transferred to a membrane and probed.

B1: Nox4 (enzyme, UniProt Q9JHI8 1-578)
chain: MAVSWRSWLANEGVKHLCLLIWLSLNVLLFWKTFLLYNQGPEYYYIHQMLGLGLCLSRASASVLNLNCSLILLPMCRTVLAYLRGSQKVPSRRTRRLLDKSKTLHITCGVTICIFSGVHVAAHLVNALNFSVNYSEDFLELNAARYQNEDPRKLLFTTIPGLTGVCMVVVLFLMVTASTYAIRVSNYDIFWYTHNLFFVFYMLLLLHVSGGLLKYQTNVDTHPPGCISLNQTSSQNMSIPDYVSEHFHGSLPRGFSKLEDRYQKTLVKICLEEPKFQAHFPQTWIWISGPLCLYCAERLYRCIRSNKPVTIISVINHPSDVMELRMIKENFKARPGQYIILHCPSVSALENHPFTLTMCPTETKATFGVHFKVVGDWTERFRDLLLPPSSQDSEILPFIHSRNYPKLYIDGPFGSPFEESLNYEVSLCVAGGIGVTPFASILNTLLDDWKPYKLRRLYFIWVCRDIQSFQWFADLLCVLHNKFWQENRPDFVNIQLYLSQTDGIQKIIGEKYHTLNSRLFIGRPRWKLLFDEIAKCNRGKTVGVFCCGPSSISKTLHSLSNRNNSYGTKFEYNKESFS
For B1, the binding entry is on record as “binds”.

B2: Nox2 (enzyme, UniProt Q61093 1-570)
chain: MGNWAVNEGLSIFVILVWLGLNVFLFINYYKVYDDGPKYNYTRKLLGSALALARAPAACLNFNCMLILLPVCRNLLSFLRGSSACCSTRIRRQLDRNLTFHKMVAWMIALHTAIHTIAHLFNVEWCVNARVGISDRYSIALSDIGDNENEEYLNFAREKIKNPEGGLYVAVTRLAGITGIVITLCLILIITSSTKTIRRSYFEVFWYTHHLFVIFFIGLAIHGAERIVRGQTAESLEEHNLDICADKIEEWGKIKECPVPKFAGNPPMTWKWIVGPMFLYLCERLVRFWRSQQKVVITKVVTHPFKTIELQMKKKGFKMEVGQYIFVKCPKVSKLEWHPFTLTSAPEEDFFSIHIRIVGDWTEGLFNACGCDKQEFQDAWKLPKIAVDGPFGTASEDVFSYEVVMLVGAGIGVTPFASILKSVWYKYCDNATSLKLKKIYFYWLCRDTHAFEWFADLLQLLETQMQERNNANFLSYNIYLTGWDESQANHFAVHHDEEKDVITGLKQKTLYGRPNWDNEFKTIASEHPNTTIGVFLCGPEALAETLSKQSISNSESGPRGVHFIFNKENF
As for B2, the binding result is given as “binds”.
